Laboratory results published in paper PMC11157765.
No constants are given. Whether binding was seen depends on the method and setting. In cells and extracts the contact can be indirect. These calls come from enrichment with a bait or labelling near it, and not all partners need be listed.

Amino acid sequences for entries named in this document (tags omitted). Residues count along the entry.
UniProt Q6UX06, residues 21-510: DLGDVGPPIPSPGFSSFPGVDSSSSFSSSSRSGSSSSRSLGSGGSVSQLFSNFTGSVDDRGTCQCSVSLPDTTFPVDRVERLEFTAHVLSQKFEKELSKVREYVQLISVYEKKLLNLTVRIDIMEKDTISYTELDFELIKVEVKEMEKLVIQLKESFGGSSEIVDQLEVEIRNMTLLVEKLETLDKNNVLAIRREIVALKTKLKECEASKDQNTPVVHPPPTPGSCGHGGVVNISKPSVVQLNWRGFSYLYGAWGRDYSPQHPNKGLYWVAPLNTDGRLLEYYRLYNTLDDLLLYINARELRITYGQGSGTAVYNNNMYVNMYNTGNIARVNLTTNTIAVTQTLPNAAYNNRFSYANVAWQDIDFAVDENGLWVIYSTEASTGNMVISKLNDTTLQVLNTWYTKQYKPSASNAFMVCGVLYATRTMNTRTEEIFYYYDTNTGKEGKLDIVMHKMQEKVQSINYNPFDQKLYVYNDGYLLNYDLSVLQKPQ
UniProt P21333: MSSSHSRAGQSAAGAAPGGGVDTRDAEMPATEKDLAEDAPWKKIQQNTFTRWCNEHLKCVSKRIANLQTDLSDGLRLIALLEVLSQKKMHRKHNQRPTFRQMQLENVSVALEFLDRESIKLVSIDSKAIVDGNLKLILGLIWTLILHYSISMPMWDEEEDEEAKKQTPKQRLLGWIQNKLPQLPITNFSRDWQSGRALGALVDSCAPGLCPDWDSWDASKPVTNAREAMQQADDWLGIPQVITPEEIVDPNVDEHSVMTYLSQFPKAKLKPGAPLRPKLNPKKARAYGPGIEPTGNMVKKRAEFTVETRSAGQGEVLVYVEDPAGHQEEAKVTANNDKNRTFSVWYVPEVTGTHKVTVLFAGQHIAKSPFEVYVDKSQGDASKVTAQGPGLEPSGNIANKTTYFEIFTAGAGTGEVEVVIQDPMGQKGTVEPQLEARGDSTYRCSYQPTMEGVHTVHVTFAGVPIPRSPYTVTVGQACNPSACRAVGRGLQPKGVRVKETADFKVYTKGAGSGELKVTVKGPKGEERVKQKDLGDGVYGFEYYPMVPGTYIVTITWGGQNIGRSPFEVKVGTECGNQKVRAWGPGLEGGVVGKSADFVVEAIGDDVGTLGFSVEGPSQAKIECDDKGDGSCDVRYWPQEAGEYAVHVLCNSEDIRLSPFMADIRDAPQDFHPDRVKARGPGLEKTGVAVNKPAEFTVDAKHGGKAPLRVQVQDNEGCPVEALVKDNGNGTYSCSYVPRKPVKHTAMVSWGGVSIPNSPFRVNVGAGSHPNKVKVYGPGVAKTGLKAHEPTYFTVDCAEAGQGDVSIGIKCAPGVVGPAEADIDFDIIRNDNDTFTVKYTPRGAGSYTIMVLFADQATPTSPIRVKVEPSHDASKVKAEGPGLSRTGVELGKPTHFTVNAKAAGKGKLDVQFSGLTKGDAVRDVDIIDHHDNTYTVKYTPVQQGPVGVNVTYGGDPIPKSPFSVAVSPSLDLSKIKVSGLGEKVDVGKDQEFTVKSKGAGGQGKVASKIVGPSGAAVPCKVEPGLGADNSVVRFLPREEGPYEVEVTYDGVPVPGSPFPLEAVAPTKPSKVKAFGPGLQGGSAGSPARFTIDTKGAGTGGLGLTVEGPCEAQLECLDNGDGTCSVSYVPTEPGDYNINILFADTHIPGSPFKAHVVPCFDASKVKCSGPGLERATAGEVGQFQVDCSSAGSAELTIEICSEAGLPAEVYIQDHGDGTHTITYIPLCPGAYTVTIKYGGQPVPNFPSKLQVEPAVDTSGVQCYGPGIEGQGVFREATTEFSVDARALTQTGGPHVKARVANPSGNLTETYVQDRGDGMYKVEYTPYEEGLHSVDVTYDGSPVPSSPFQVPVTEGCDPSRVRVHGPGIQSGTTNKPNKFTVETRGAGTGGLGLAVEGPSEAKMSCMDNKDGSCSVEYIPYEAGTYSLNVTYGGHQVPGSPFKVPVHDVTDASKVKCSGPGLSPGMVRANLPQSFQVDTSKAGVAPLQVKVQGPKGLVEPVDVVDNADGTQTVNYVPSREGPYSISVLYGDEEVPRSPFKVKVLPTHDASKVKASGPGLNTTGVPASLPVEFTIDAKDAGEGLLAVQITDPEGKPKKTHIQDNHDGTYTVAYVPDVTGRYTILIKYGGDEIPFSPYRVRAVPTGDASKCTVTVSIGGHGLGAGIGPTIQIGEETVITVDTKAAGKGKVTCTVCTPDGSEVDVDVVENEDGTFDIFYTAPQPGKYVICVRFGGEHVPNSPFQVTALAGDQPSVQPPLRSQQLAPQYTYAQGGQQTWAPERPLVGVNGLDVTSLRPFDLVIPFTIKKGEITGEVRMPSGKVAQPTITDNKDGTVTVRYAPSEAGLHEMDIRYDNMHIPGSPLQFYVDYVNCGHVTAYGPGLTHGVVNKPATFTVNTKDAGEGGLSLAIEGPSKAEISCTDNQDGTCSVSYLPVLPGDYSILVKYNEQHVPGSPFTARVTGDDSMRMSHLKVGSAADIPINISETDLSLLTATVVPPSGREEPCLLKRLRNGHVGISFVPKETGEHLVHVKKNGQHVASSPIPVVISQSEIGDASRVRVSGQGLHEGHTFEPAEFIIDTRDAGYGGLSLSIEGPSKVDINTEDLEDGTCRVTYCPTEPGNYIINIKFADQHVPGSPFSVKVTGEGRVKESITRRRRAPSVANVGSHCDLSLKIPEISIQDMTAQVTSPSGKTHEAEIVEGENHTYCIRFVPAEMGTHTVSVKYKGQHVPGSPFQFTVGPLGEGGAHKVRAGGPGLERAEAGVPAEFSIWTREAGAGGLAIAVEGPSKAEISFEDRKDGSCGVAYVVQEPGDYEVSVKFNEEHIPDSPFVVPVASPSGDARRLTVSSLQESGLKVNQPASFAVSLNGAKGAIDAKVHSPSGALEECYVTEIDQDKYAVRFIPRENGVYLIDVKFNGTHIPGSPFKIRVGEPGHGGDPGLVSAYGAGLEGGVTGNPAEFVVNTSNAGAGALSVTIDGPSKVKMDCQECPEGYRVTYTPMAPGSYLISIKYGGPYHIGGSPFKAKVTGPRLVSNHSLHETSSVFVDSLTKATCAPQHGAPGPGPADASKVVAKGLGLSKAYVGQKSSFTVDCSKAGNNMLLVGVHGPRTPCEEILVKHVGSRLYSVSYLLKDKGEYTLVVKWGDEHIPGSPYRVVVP
UniProt P35580: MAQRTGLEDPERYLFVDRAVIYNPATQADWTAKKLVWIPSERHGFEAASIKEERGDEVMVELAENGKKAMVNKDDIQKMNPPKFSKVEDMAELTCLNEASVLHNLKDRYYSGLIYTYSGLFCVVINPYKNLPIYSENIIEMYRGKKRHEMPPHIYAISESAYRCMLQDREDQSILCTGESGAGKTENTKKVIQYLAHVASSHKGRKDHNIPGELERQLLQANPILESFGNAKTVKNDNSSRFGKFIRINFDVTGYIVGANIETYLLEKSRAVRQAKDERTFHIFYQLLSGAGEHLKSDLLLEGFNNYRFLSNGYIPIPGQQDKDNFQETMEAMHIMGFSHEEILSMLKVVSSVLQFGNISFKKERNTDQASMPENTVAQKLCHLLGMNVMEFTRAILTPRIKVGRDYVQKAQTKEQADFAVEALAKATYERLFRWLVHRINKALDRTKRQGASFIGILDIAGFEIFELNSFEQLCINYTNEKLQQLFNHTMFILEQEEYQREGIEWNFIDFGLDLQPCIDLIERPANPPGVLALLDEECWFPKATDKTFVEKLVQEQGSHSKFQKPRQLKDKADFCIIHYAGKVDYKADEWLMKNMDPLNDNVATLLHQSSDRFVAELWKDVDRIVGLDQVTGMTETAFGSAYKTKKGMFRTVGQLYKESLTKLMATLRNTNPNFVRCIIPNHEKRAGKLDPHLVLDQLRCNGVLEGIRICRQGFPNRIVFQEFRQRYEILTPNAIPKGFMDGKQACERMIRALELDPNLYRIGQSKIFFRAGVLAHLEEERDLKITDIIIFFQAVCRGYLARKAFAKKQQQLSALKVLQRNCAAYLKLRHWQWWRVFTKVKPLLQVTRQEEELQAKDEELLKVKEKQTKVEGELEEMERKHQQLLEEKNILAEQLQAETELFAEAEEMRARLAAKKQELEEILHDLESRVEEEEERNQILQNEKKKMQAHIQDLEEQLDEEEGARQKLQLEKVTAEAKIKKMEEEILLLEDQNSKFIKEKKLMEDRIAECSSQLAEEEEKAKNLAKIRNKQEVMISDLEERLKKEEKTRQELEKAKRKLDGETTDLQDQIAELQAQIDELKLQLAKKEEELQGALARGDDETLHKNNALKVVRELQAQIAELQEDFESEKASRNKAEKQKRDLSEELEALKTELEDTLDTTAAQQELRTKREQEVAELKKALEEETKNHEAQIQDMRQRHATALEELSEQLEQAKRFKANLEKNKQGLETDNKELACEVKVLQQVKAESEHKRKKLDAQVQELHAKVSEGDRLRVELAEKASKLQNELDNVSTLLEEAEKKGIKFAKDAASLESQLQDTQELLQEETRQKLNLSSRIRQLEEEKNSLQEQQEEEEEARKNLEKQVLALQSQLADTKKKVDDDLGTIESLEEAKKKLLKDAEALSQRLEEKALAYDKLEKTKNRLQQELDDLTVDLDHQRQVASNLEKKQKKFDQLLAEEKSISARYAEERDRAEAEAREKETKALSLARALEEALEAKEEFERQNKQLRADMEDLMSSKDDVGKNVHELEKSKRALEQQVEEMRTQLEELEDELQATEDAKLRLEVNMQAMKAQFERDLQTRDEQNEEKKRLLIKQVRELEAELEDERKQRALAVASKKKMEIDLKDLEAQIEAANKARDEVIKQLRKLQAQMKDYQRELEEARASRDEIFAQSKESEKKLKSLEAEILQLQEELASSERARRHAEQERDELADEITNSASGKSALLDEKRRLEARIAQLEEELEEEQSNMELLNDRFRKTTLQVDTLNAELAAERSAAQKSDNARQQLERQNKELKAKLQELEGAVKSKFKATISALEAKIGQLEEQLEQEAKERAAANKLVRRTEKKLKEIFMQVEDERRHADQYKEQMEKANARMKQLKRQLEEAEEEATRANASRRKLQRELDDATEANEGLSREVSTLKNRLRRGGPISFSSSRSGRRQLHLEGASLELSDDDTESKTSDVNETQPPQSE

Molecular target: Olfactomedin-4 (OLFM4) (UniProt Q6UX06)
Assay: affinity purification with mass spectrometry; Co-IP with the OLFM4 antibody (14369S, CST) and Protein A/G magnetic beads, then mass spectrometry; cells not given

Substance | binding
FLNA (from UniProt P21333 1-2647) | binds
MYH10 (from UniProt P35580 1-1976) | binds
Myosin heavy chain 9 (MYH9) (from UniProt P35579 1-1960) | binds
